Experimental data as given in PubChem BioAssay AID540276 (National Center for Advancing Translational Sciences (NCATS), 2011).
Values joined by “and” are separate entries in the source; they are usually repeats but may differ in a detail not shown here. Identical values can stand only once. Screen size: about 300,000 compounds; about 5,400 (1.8%) were called active. Inconclusive results, whose numbers are uncertain, are shown with a selection of clear calls. Calls follow the shape of the full dose curve; tested in HEK293 cells. Where the call is inconclusive, the potency comes from a doubtful curve fit.

Test: qHTS for inhibitors of binding or entry into cells for Marburg Virus
Details: Marburg virus pseudotyped entry inhibition, cell reporter; series mostly up to 37.8 µM
Potency is read from the fitted curve at half-maximal effect.

Q: Which Potency does the source give for O=C(NCC1CCCN1S(=O)(=O)c1cccs1)C(=O)Nc1ccccc1 (configuration not stated) here?
A: inconclusive: 35.5 µM [activator, single point]

Q: With COc1ccc(OCC(=O)OCCNC(=O)c2cccnc2)cc1 as the compound, how does the Potency read?
A: inactive

Q: Which Potency does the source give for Oc1ccc(-c2nc3ccc4ccccc4c3c3c2CCC3)cc1O here?
A: inconclusive: 1.26 µM [activator, single point]

Q: For NS(=O)(=O)c1ccc2nc(NC(=O)Nc3ccccc3F)sc2c1, which Potency is on record?
A: inconclusive: 7.94 µM [inhibitor, partial curve, poor fit]

Q: Which Potency does the source give for COc1ccc(Cc2nnc(NS(=O)(=O)c3ccccc3)s2)cc1 here?
A: inconclusive: 3.16 µM [inhibitor, single point]

Q: With O=C(CCN1C(=O)C2C3C=CC(C3)C2C1=O)N1CCN(c2ccccc2Cl)CC1 (configuration not stated) as the compound, how does the Potency read?
A: inactive

Q: Which Potency does the source give for COc1ccc(N(C(=O)c2ccccc2)S(=O)(=O)c2ccc3c(c2)n(C)c(=O)n3C)cc1 here?
A: inactive

Q: Which Potency does the source give for OCCCCNCc1cc(Br)ccc1OCc1ccccc1F here?
A: inconclusive: 10 µM [inhibitor, partial curve, poor fit]

Q: With O=C(NC(=S)Nc1ccccc1Cl)c1cncc(Br)c1 as the compound, how does the Potency read?
A: inactive

Q: For COc1ccc(OC)c(Nc2cc(C)nc3ccc(C)cc23)c1, which Potency is on record?
A: inconclusive: 7.08 µM [inhibitor, full curve, poor fit]

Q: For O=C(OCCN1CCCCC1)c1cccc(F)c1, which Potency is on record?
A: inactive

Q: With CCN(CC)S(=O)(=O)c1cc(C(=O)c2nccn2C)ccc1Cl as the compound, how does the Potency read?
A: inactive

Q: Which Potency does the source give for CC(C)(C)NC(=O)N1CCCN(c2ccc(C(F)(F)F)cn2)CC1 here?
A: inconclusive: 31.6 µM [inhibitor, single point]

Q: For CC(=O)c1ccc(NC(=O)Cn2ncc3c4ccccc4n(Cc4ccccc4)c3c2=O)cc1, which Potency is on record?
A: inactive

Q: Which Potency does the source give for CCCC(c1nnnn1Cc1ccc(F)cc1)N1CCN(CC)CC1 (configuration not stated) here?
A: inactive

Q: Which Potency does the source give for N=C1C(c2nc3ccccc3s2)=C(O)CN1Cc1ccccc1 here?
A: inconclusive: 5.01 µM [inhibitor, full curve, poor fit]

Q: With COc1ccc(C(=O)NC(=S)Nc2ccc(S(N)(=O)=O)cc2)cc1 as the compound, how does the Potency read?
A: inconclusive: 3.16 µM [activator, single point]

Q: For Oc1ccc(C2=NNC(c3ccc(O)cc3)=NN2)cc1, which Potency is on record?
A: inactive

Q: With CN(C)/C=C1\SC(=S)N(N2C(=O)C3C4C=CC(C4)C3C2=O)C1=O (configuration not stated) as the compound, how does the Potency read?
A: inactive

Q: With N#CC1=C(N)Oc2cc(N)ccc2C1C1CCCCC1 (configuration not stated) as the compound, how does the Potency read?
A: inconclusive: 3.55 µM [inhibitor, partial curve, poor fit]

Q: Which Potency does the source give for COc1ccc(/C=C(/NC(=O)c2ccc(C)cc2)C(=O)N2CCCC2)cc1OC here?
A: inconclusive: 5.62 µM [inhibitor, partial curve, poor fit]

Q: Which Potency does the source give for CCN(c1ccccc1)S(=O)(=O)c1ccc(Cl)c(NC(=O)CSc2ncn[nH]2)c1 here?
A: inactive

Q: For Cc1nc(Cc2ccccc2)sc1CC#N, which Potency is on record?
A: inactive

Q: For COc1ccc(C(=O)CSc2nnc(-c3cc4ccccc4cc3O)n2Cc2ccco2)cc1, which Potency is on record?
A: inactive

Q: With COc1ccc(C2C3=C(CCCC3=O)Nc3nc(-c4cc(OC)c(OC)c(OC)c4)nn32)cc1OC (configuration not stated) as the compound, how does the Potency read?
A: inconclusive: 0.231 µM [inhibitor, full curve, poor fit]

Q: Which Potency does the source give for Cc1ccc(NC(=S)Nc2ccc(OC(F)F)c(Cl)c2)cc1Cl here?
A: inconclusive: 1.12 µM [activator, single point]

Q: Which Potency does the source give for CCCN1CCN(C(=S)Nc2ccc3nc(N4CCN(CC)CC4)cc(C)c3c2)CC1 here?
A: inconclusive: 17.8 µM [inhibitor, partial curve, poor fit]

Q: Which Potency does the source give for CC(=O)c1sc(NC(=O)C(C)C)nc1C here?
A: inconclusive: 3.16 µM [activator, single point]

Q: Which Potency does the source give for COc1ccc(CNC(=O)c2ccc3nccnc3c2)cc1 here?
A: inactive

Q: With Clc1ccc(-c2nnc(SCc3nc4ccccc4[nH]3)o2)c(Cl)c1 as the compound, how does the Potency read?
A: inactive

Q: Which Potency does the source give for CC(=O)OC1C2CCC1C([N+]1(C)CCCCC1)CC2 (configuration not stated) here?
A: inconclusive: 35.5 µM [activator, single point]

Q: With CC(C)C(=O)NC(=S)NCC(=O)c1ccccc1 as the compound, how does the Potency read?
A: inactive

Q: Which Potency does the source give for CCN(CC)S(=O)(=O)c1ccc(C)c(NC(=O)c2cc(C)oc2C)c1 here?
A: inconclusive: 31.6 µM [inhibitor, single point]

Q: Which Potency does the source give for COc1ccc(OC)c(NC(=O)CCNS(=O)(=O)c2ccc3c(c2)oc(=O)n3C)c1 here?
A: inactive and inconclusive: 3.98 µM [activator, single point]

Q: With CCOc1cc(/C=N/O)ccc1OCc1ccc([N+](=O)[O-])cc1 as the compound, how does the Potency read?
A: inconclusive: 14.1 µM [activator, partial curve, poor fit]

Q: For O=C(COc1ccc(Oc2ccccc2)cc1)NCc1cn2ccccc2n1, which Potency is on record?
A: inconclusive: 12.6 µM [inhibitor, partial curve, poor fit]

Q: Which Potency does the source give for Cc1cc(C)n(-c2nc3ccccc3s2)n1 here?
A: inconclusive: 29.1 µM [activator, single point]

Q: For Cc1cc(/C=C2/NC(=O)N(Cc3ccccc3F)C2=O)c(C)n1C, which Potency is on record?
A: inconclusive: 2.59 µM [inhibitor, partial curve]

Q: With O=C(CSc1nccn1-c1ccc(F)cc1)NCc1ccc2c(c1)OCO2 as the compound, how does the Potency read?
A: inconclusive: 35.5 µM [inhibitor, single point]

Q: For CCc1ccc(Nc2sc(C(=O)c3ccc(F)cc3)c(N)c2S(=O)(=O)c2ccccc2)cc1, which Potency is on record?
A: inconclusive: 20 µM [inhibitor, partial curve, poor fit]

Q: For Nc1nnc(SCC(=O)NC2CCCCC2)s1, which Potency is on record?
A: inconclusive: 4.47 µM [activator, partial curve, poor fit]

Q: Which Potency does the source give for OCCn1c(-c2ccc3c(c2)OCO3)csc1=Nc1ccccc1 here?
A: inconclusive: 29.1 µM [inhibitor, single point]

Q: For COc1ccc(-c2nsc3c(SCc4ccccc4)ncnc23)cc1, which Potency is on record?
A: inactive

Q: For O=c1/c(=C\c2ccc(O)cc2)sc2n1C(c1ccccc1)C(c1ccccc1)=NN=2 (configuration not stated), which Potency is on record?
A: inactive

Q: With CCn1cnc2c(Nc3cccc(Cl)c3)nc(N[C@@H]3CCCC[C@H]3N)nc21 as the compound, how does the Potency read?
A: active: 6.31 µM

Q: With COc1cc(OC)c(NC(=O)C2CCN(S(=O)(=O)c3ccc4c(c3)oc(=O)n4C)CC2)cc1Cl as the compound, how does the Potency read?
A: inactive

Q: For CC(=O)c1sc(N/N=C\c2ccccc2O)nc1C, which Potency is on record?
A: inconclusive: 8.91 µM [inhibitor, partial curve, poor fit]
